# Assay results as given in PubChem BioAssay AID504467 (National Center for Advancing Translational Sciences (NCATS), 2011).
# In all, about 330,000 compounds went through this assay and about 7,700 (2.3%) were called active. Inconclusive results, whose numbers are uncertain, are shown with a selection of clear calls. The call rests on the fitted dose curve; in most records, active means well fitted inhibition curve with a large enough effect; inconclusive means small, poorly fitted or top-dose-only effect, or effect the other way; inactive means flat fitted curve, though single readings scatter. Potencies of inconclusive entries are doubtful fits and often do not repeat.
# Assay: qHTS screen for small molecules that inhibit ELG1-dependent DNA repair in human embryonic kidney (HEK293T) cells expressing luciferase-tagged ELG1; further: nearly all actives have a fitted effect of over 55% in size
# Conditions: HEK293T ELG1-luciferase reporter, luminescence, 16 h, DNA damage induced by 5-fluorouridine; series mostly up to 46.1 µM
# Outline: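 Luminescence from the luciferase reporter, measured 30 min after ONE-Glo reagent at room temperature, was the read-out. Beforehand, 2,000 cells per well were exposed for 16 hr at 37 °C to 5-fluorouridine together with compound or vehicle.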
# Potency means the concentration at half of the fitted maximal effect.
row,SMILES,Potency
1,CCOC(=O)C(NC(C)=O)(NC(C)C)C(F)(F)F (stereo not given),inactive
2,Cc1ccc(SCCNC(=S)Nc2ccc(C)cc2C)cc1,inactive
3,CC(NC(=O)OC(C)(C)C)C(=O)Oc1cc2oc(=O)cc(-c3ccccc3)c2cc1Cl (stereo not given),"inconclusive: 11.6 µM [inhibitor, partial curve]"
4,CCOC(=O)N1CCN(CC(O)COc2ccccc2[N+](=O)[O-])CC1 (stereo not given),inactive
5,CCCCN(C(=O)CSc1nnnn1C)C1CCS(=O)(=O)C1 (stereo not given),inactive
6,CCCN(Cc1cc2cc(C)ccc2[nH]c1=O)C(=O)c1cccc(OC)c1,"inconclusive: 16.4 µM [inhibitor, partial curve]"
7,COc1ccccc1CN1CC(C(=O)NCCC2=CCCCC2)CCC1=O (stereo not given),"inconclusive: 29.1 µM [activator, single point]"
8,COc1cc(/C=N/O)ccc1OCc1ccc([N+](=O)[O-])cc1,"inconclusive: 3.66 µM [activator, full curve]"
9,CCCC(=O)Nc1ccc(C(=O)N/N=C/c2ccc([N+](=O)[O-])o2)cc1,"inconclusive: 10.3 µM [inhibitor, partial curve, poor fit]"
10,O=C(NC(=S)NCc1ccccc1)c1ccc2c(c1)OCO2,"inconclusive: 16.4 µM [activator, partial curve]"
11,C/C(=N\NC(=O)c1cc(Cl)ccc1O)c1ccc(Br)s1,"inconclusive: 6.51 µM [activator, partial curve]"
12,Cc1ccc(C(=O)Nc2cccc(C(F)(F)F)c2)cc1NC(=O)c1nccnc1N,"inconclusive: 29.1 µM [activator, partial curve, poor fit]"
13,CC(C)N(Cc1ccccc1)C(=O)COC(=O)c1ccccc1SCC(=O)N1CCCC1,"inconclusive: 11.6 µM [inhibitor, partial curve]"
14,C[C@H](CO)N1C[C@H](C)[C@@H](CN(C)C(=O)Nc2ccc3c(c2)OCO3)Oc2c(NC(=O)Nc3ccccc3)cccc2C1=O,active: 6.51 µM
15,Cc1ccc(-c2nnc(Nc3ccccc3)c3ccccc23)cc1S(=O)(=O)NCC1CCCO1 (stereo not given),active: 20.6 µM
16,COc1cccc(NC(=O)CN(C)C(=O)c2cccnc2Sc2ccc(C)c(C)c2)c1,"inconclusive: 35.5 µM [inhibitor, single point]"
17,CN1C(=O)C(N=Nc2ccccc2C(=O)O)N(C)C1=S (stereo not given),"inconclusive: 32.6 µM [activator, partial curve, poor fit]"
18,COc1cc(OC)c2c(=O)cc(-c3cccnc3)oc2c1,"inconclusive: 23.1 µM [activator, partial curve]"
19,Cn1c(-c2cccc3ccccc23)n[nH]c1=S,inactive
20,COc1ccc(NCC(=O)Nc2ccc(Cl)cc2C)c(OC)c1,inactive
21,CCOc1ccc2nc(N3CCOCC3)nc(C)c2c1,"inconclusive: 9.2 µM [activator, partial curve]"
22,O=C(N/N=C/c1ccccc1F)c1ccccc1OCc1ccccc1,"inconclusive: 29.1 µM [inhibitor, single point]"
23,COc1cccc(CC(=O)Nc2nc3c(s2)C(=O)CC(C)(C)C3)c1,inactive
24,O=C(CSc1nc2ccccc2o1)NCc1ccc2c(c1)OCO2,"inconclusive: 9.2 µM [activator, partial curve]"

row,SMILES,Potency
1,COc1ccc(NC(=S)NNc2ccc(S(=O)(=O)Nc3ccccc3C(=O)O)cc2[N+](=O)[O-])cc1,"inconclusive: 29.1 µM [inhibitor, single point]"
2,CC(C(=O)OCC(=O)Nc1cccc(S(=O)(=O)N2CCOCC2)c1)N1C(=O)c2ccccc2C1=O (stereo not given),inactive
3,Cc1ccc(C(=O)NCCSc2ccccc2)cc1S(=O)(=O)Nc1ccccc1,"inconclusive: 29.1 µM [inhibitor, single point]"
4,Fc1ccc(-c2csc(Nc3ccccn3)n2)cc1,"inconclusive: 1.3 µM [activator, partial curve, poor fit]"
5,COc1cc2c(cc1OC)CN(CC(=O)Nc1ccc(C)c(S(=O)(=O)N3CCOCC3)c1)CC2,"inconclusive: 25.9 µM [inhibitor, single point]"
6,O=C(Nc1cccnc1)C1CCCN(S(=O)(=O)c2cccc3nsnc23)C1 (stereo not given),"inconclusive: 18.4 µM [inhibitor, partial curve]"
7,CCN(CC)S(=O)(=O)c1ccc(N2CCOCC2)c(NC(=S)NC(=O)c2ccco2)c1,active: 16.4 µM
8,CCCSC(=S)c1c(C)[nH]n(-c2ccccc2)c1=O,active: 13 µM
9,Nc1nc2ccc(S(=O)(=O)N3CCCCC3)cc2s1,inactive
10,CCc1nnc(NC(=O)CSc2nc3c(cc2C#N)CCC3)s1,"inconclusive: 4.11 µM [activator, partial curve, poor fit]"
11,O=C(/C(=C/c1ccc(Cl)cc1)c1nc2ccccc2[nH]1)c1cccs1,active: 7.31 µM
12,CCS(=O)(=O)N1Cc2ccccc2CC1C(=O)Nc1nnc(SCc2ccc(F)cc2)s1 (stereo not given),inactive
13,CN(C)c1ccc(NC(=O)Nc2ccc3c(c2)nnn3C)cc1,"inconclusive: 35.5 µM [activator, single point]"
14,CC1CCN(C(=S)c2ccccc2O)CC1,"inconclusive: 29.1 µM [activator, single point]"
15,CCc1ccc(Nc2oc(C)cc(=O)c2C(C)=O)cc1,"inconclusive: 20.6 µM [activator, single point]"
16,CCN1C(=O)[C@H]2[C@@H](c3ccc(-c4ccccc4)c(OC)c3)N[C@@](CC(C)C)(C(=O)OC)[C@H]2C1=O,inactive
17,O=C(Nc1ccc2c(c1)CCC2)c1cc(F)cc(F)c1,"inconclusive: 2.06 µM [activator, full curve]"
18,CCn1c(COc2ccccc2C)nnc1SCC(=O)CC(=O)Nc1ccccc1OC,inactive
19,CCC(C)Cn1c(C)nc2ccccc21 (stereo not given),active: 9.2 µM
20,COc1ccc(-c2csc(NC(=O)c3ccc(OCC(=O)N4CCOCC4)c(OC)c3)n2)cc1OC,active: 4.61 µM
21,O=C(Nc1ccc2c(c1)OCO2)C1CCCN1C(=O)OCc1ccccc1 (stereo not given),inactive
22,COc1cccc(NC(=O)C2CCCN(S(=O)(=O)c3ccc(-n4cnnn4)cc3)C2)c1 (stereo not given),"inconclusive: 13 µM [inhibitor, partial curve, poor fit]"
23,C=CCNC(=O)COc1ccc(Oc2ccccc2)cc1,inactive
24,O=C(O)C(=O)/C(=C\c1cccc(Cl)c1)c1ccc2ccccc2n1,"inconclusive: 13 µM [activator, partial curve]"

row,SMILES,Potency
1,O=C(NC(=S)Nc1ncc(Br)cc1Br)c1ccccc1,"inconclusive: 16.4 µM [activator, partial curve]"
2,Cc1cccc(NC(=O)c2ccc3nccnc3c2)n1,"inconclusive: 20.6 µM [activator, single point]"
3,Cc1nc2ccc(NC(=O)c3cc(S(=O)(=O)N4CCOCC4)ccc3C)cc2s1,"inconclusive: 20.6 µM [inhibitor, partial curve, poor fit]"
4,COc1cc(CNC2CCCCCCC2)cc(Br)c1OCC#N,"inconclusive: 25.9 µM [inhibitor, single point]"
5,O=C(Cc1ccccc1)NNC(=O)Nc1cccc(Cl)c1,inactive
6,COc1ccc(/C(N)=N/OC(=O)Cc2cccs2)cc1,"inconclusive: 18.4 µM [activator, partial curve]"
7,S=C(NCCCc1ccccc1)Nc1ccccc1,"inconclusive: 29.1 µM [activator, single point]"
8,O=C(c1ccc(N2CCN(S(=O)(=O)c3ccccc3)CC2)c([N+](=O)[O-])c1)N1CCOCC1,"inconclusive: 20.6 µM [inhibitor, single point]"
9,COCCSc1nnc(NC(=O)c2ccc3c(c2)OCO3)s1,"inconclusive: 20.6 µM [activator, partial curve]"
10,CCC(=O)c1ccc(Oc2nc3c(c(=O)n(C)c(=O)n3C)n2CC)cc1,active: 14.6 µM
11,Cc1ccc(C)c(C(=O)COC(=O)C2CCN(c3ccc(C(F)(F)F)cn3)CC2)c1,"inconclusive: 16.4 µM [activator, single point]"
12,COc1ccc(C2CC(c3ccc(Br)cc3)=NN2C(=O)CN2CCCC2)cc1 (stereo not given),"inconclusive: 29.1 µM [inhibitor, single point]"
13,CCCOc1ccc(/C=N/NC(=O)C2CCCN2S(=O)(=O)c2ccc(Cl)cc2)cc1 (stereo not given),"inconclusive: 4.61 µM [inhibitor, partial curve, poor fit]"
14,COc1cc2c(cc1OC)CN(C(=O)CCNS(=O)(=O)c1ccccc1F)CC2,inactive
15,O=C(c1csc2c1CCCCC2)N1CCN(c2ncccn2)CC1,"inconclusive: 10 µM [inhibitor, partial curve, poor fit]"
16,COc1ccccc1N1CCN(C(=O)c2ccc(S(=O)(=O)N3CCCCCC3)cc2)CC1,active: 14.6 µM
17,O=C(Nc1ccc([N+](=O)[O-])cc1)Nc1ccc(OC(F)F)c(Cl)c1,"inconclusive: 20.6 µM [inhibitor, partial curve]"
18,Cn1nc(C(=O)NCc2cccs2)c2ccccc2c1=O,"inconclusive: 29.1 µM [activator, single point]"
19,O=C1c2cccc3cccc(c23)C(=O)N1c1ccc(O)cc1,inactive
20,Cc1cc(C)c(NC(=O)C(C)c2cccc(C(=O)c3ccccc3)c2)c(C)c1 (stereo not given),"inconclusive: 25.9 µM [inhibitor, single point]"
21,Cc1nc(NC(=O)c2ccccc2)sc1-c1csc(NCCc2ccccc2)n1,"inconclusive: 23.1 µM [inhibitor, single point]"
22,Cc1ccc(C(=O)NN2C(=O)C3C4C=CC(C4)[C@@H]3C2=O)cc1 (stereo not given in full),"inconclusive: 16.4 µM [activator, single point]"

# Look-ups from the results shown:
# COc1ccc(C2CC(c3ccc(Br)cc3)=NN2C(=O)CN2CCCC2)cc1 (stereo not given) – Potency: inconclusive: 29.1 µM [inhibitor, single point]
# S=C(NCCCc1ccccc1)Nc1ccccc1 – Potency: inconclusive: 29.1 µM [activator, single point]
# CCC(=O)c1ccc(Oc2nc3c(c(=O)n(C)c(=O)n3C)n2CC)cc1 – Potency: active: 14.6 µM
